## Melanoma cell counts after drug treatment

Source: doi:10.1371/journal.pone.0140310, primary screening data, rounded.

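The test systems are human melanoma cell lines, treated with two drugs together for 72 h and then stained and imaged. Each value is the count of nuclei relative to DMSO-treated wells, in %, so that 100 equals the control. Concentrations were fixed for each drug; these are the higher of two levels. These are primary screening values without error estimates.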 An unselected part of the screen is shown.

Compounds and concentrations:
PF-04217903: OCCn1cc(-c2cnc3nnn(Cc4ccc5ncccc5c4)c3n2)cn1 at 5000 nM
gemcitabine: Nc1ccn([C@@H]2O[C@H](CO)[C@@H](O)C2(F)F)c(=O)n1 at 2 nM
tamatinib: COc1cc(Nc2ncc(F)c(Nc3ccc4c(n3)NC(=O)C(C)(C)O4)n2)cc(OC)c1OC at 2000 nM
T0901317: O=S(=O)(c1ccccc1)N(CC(F)(F)F)c1ccc(C(O)(C(F)(F)F)C(F)(F)F)cc1 at 7000 nM
CX-4945: O=C(O)c1ccc2c(c1)nc(Nc1cccc(Cl)c1)c1ccncc12 at 2000 nM
JZL184: O=C(Oc1ccc([N+](=O)[O-])cc1)N1CCC(C(O)(c2ccc3c(c2)OCO3)c2ccc3c(c2)OCO3)CC1 at 5000 nM
STA-4783: CN(NC(=O)CC(=O)NN(C)C(=S)c1ccccc1)C(=S)c1ccccc1 at 30 nM
AS-252424: O=C1NC(=O)/C(=C/c2ccc(-c3ccc(F)cc3O)o2)S1 at 5000 nM
BI-D1870: CC(C)CCN1c2nc(Nc3cc(F)c(O)c(F)c3)ncc2N(C)C(=O)C1C (stereo unspecified) at 1000 nM
tanespimycin: C=CCNC1=C2C[C@@H](C)C[C@H](OC)[C@H](O)[C@@H](C)/C=C(\C)[C@H](OC(N)=O)[C@@H](OC)/C=C\C=C(/C)C(=O)NC(=CC1=O)C2=O at 10 nM

* CX-4945 + tamatinib : COLO 800: 40.3; WM3619: 50.8; COLO 829: 53.4; WM451Lu: 70.3; C32: 82.9; COLO 792: 28.2
* T0901317 + gemcitabine : COLO 800: 3.5; WM3619: 56.4; COLO 829: 51.0; WM451Lu: 52.3; C32: 68.9; COLO 792: 73.4
* JZL184 + CX-4945 : COLO 800: 106; WM3619: 84.7; COLO 829: 47.8; WM451Lu: 102; C32: 96.6; COLO 792: 87.7
* tamatinib + PF-04217903 : COLO 800: 58.6; WM3619: 57.7; COLO 829: 74.6; WM451Lu: 70.6; C32: 83.5; COLO 792: 34.0
* tamatinib + tanespimycin : COLO 800: 48.4; WM3619: 57.4; COLO 829: 71.1; WM451Lu: 52.8; C32: 32.2; COLO 792: 24.7
* T0901317 + CX-4945 : COLO 800: 84.3; WM3619: 63.6; COLO 829: 24.9; WM451Lu: 87.0; C32: 61.0; COLO 792: 70.6
* AS-252424 + CX-4945 : COLO 800: 79.0; WM3619: 79.7; COLO 829: 53.0; WM451Lu: 74.1; C32: 93.7; COLO 792: 52.9
* tamatinib + STA-4783 : COLO 800: 5.7; WM3619: 8.6; COLO 829: 51.7; WM451Lu: 72.4; C32: 19.1; COLO 792: 8.6
* gemcitabine + CX-4945 : COLO 800: 26.1; WM3619: 33.9; COLO 829: 22.1; WM451Lu: 34.2; C32: 71.5; COLO 792: 44.1
* gemcitabine + tamatinib : COLO 800: 32.8; WM3619: 80.8; COLO 829: 56.9; WM451Lu: 54.3; C32: 92.7; COLO 792: 46.5
* BI-D1870 + JZL184 : COLO 800: 52.1; WM3619: 80.6; COLO 829: 137; WM451Lu: 104; C32: 99.5; COLO 792: 85.7
* PF-04217903 + AS-252424 : COLO 800: 55.1; WM3619: 94.9; COLO 829: 70.0; WM451Lu: 73.0; C32: 104; COLO 792: 92.4
* tanespimycin + STA-4783 : COLO 800: 13.5; WM3619: 8.2; COLO 829: 50.0; WM451Lu: 47.1; C32: 10.0; COLO 792: 22.1
* gemcitabine + STA-4783 : COLO 800: 8.0; WM3619: 5.8; COLO 829: 47.5; WM451Lu: 38.1; C32: 21.9; COLO 792: 24.0
* CX-4945 + tanespimycin : COLO 800: 53.2; WM3619: 43.6; COLO 829: 67.6; WM451Lu: 59.2; C32: 10.1; COLO 792: 50.0
* tamatinib + AS-252424 : COLO 800: 41.4; WM3619: 54.9; COLO 829: 76.6; WM451Lu: 79.8; C32: 76.1; COLO 792: 33.6
* STA-4783 + T0901317 : COLO 800: 11.2; WM3619: 12.8; COLO 829: 48.6; WM451Lu: 83.6; C32: 23.5; COLO 792: 23.7
* PF-04217903 + CX-4945 : COLO 800: 60.5; WM3619: 87.0; COLO 829: 60.2; WM451Lu: 80.5; C32: 89.2; COLO 792: 55.3
* PF-04217903 + STA-4783 : COLO 800: 28.8; WM3619: 9.4; COLO 829: 69.0; WM451Lu: 75.4; C32: 24.6; COLO 792: 17.2
* BI-D1870 + tamatinib : COLO 800: 29.2; WM3619: 63.3; COLO 829: 91.7; WM451Lu: 53.7; C32: 75.8; COLO 792: 42.0
* T0901317 + tamatinib : COLO 800: 46.9; WM3619: 60.2; COLO 829: 71.8; WM451Lu: 78.1; C32: 74.0; COLO 792: 50.5
* gemcitabine + BI-D1870 : COLO 800: 41.9; WM3619: 58.7; COLO 829: 75.7; WM451Lu: 47.3; C32: 86.8; COLO 792: 94.3
* AS-252424 + gemcitabine : COLO 800: 32.0; WM3619: 46.2; COLO 829: 39.5; WM451Lu: 40.1; C32: 94.2; COLO 792: 64.3
* tanespimycin + AS-252424 : COLO 800: 95.8; WM3619: 45.5; COLO 829: 101; WM451Lu: 93.5; C32: 13.3; COLO 792: 68.0
* PF-04217903 + T0901317 : COLO 800: 80.6; WM3619: 100; COLO 829: 91.3; WM451Lu: 84.6; C32: 105; COLO 792: 96.6
* PF-04217903 + BI-D1870 : COLO 800: 92.9; WM3619: 69.3; COLO 829: 88.3; WM451Lu: 80.4; C32: 95.8; COLO 792: 80.5
* tanespimycin + PF-04217903 : COLO 800: 66.7; WM3619: 70.9; COLO 829: 82.7; WM451Lu: 75.8; C32: 13.4; COLO 792: 66.9

2 of the entries, repeated:

- PF-04217903 + CX-4945 : COLO 800: 60.5; WM3619: 87.0; COLO 829: 60.2; WM451Lu: 80.5; C32: 89.2; COLO 792: 55.3
- T0901317 + tamatinib : COLO 800: 46.9; WM3619: 60.2; COLO 829: 71.8; WM451Lu: 78.1; C32: 74.0; COLO 792: 50.5